According to the supplement of paper PMC10727501:
The list shows a part of the results. This data set is noisy: repeats of one test often differ as much as different tests do.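 Free-swimming zebrafish larvae were scored for O-bend response probability to dark flashes (naive: first five; training: remaining flashes of four 60-flash blocks; test: later 60-flash block) and for turning toward alternating leftward/rightward LED motion (OMR). Six treated larvae were compared with sixty 0.1% DMSO controls; |SSMD|≥2 defined a hit.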

The molecules below were run on Danio rerio larvae (5 dpf, TLF) (assay: Prob-Test (SSMD vs DMSO vehicle); higher = higher than vehicle (e.g. higher dark-flash O-bend response probability, or better optomotor performance)). Conditions: 10 µM; pre-incubation: 30-90 min.
`NC(Cc1c[nH]c2ccc(O)cc12)C(=O)O` (stereo not given) [5-hydroxytryptophan (5-HTP)] was tested, and the Prob-Test was 0.316.
`CN(C)CCC(c1ccccc1)c1ccccn1.O=C(O)/C=C\C(=O)O` (stereo not given) [Pheniramine Maleate] was tested, and the Prob-Test was -0.0124.
With `CCCc1nn(C)c2c(=O)[nH]c(-c3cc(S(=O)(=O)N4CCN(C)CC4)ccc3OCC)nc12.O=C(O)CC(O)(CC(=O)O)C(=O)O` [Sildenafil Citrate] the Prob-Test was -0.251.
With `COc1c(O)cc2c(c1O)[C@@H]1O[C@H](CO)[C@@H](O)[C@H](O)[C@H]1OC2=O` [Bergenin] the Prob-Test was 0.0676.
For `CC[C@H](c1ccc(O)cc1)[C@@H](CC)c1ccc(O)cc1` [Hexestrol], the Prob-Test was -0.814.
With `O=C(NC1CCNCC1)c1n[nH]cc1NC(=O)c1c(Cl)cccc1Cl` the Prob-Test was 0.79.
In the case of `O=C(O)Cn1nnc(-c2cc(N3CCC(Oc4cc(F)ccc4Br)CC3)no2)n1`, the Prob-Test is reported as -0.411.
`CCOC(=O)c1ccc(N2NC(=O)/C(=C/c3ccc([N+](=O)[O-])o3)C2=O)cc1` was tested, and the Prob-Test was 0.919.
For `Cn1c(=O)n(-c2ccc(C(C)(C)C#N)cc2)c2c3cc(-c4cnc5ccccc5c4)ccc3ncc21` [BEZ235 (NVP-BEZ235, Dactolisib)], the Prob-Test was -0.878.
Work on `CNCCCC12CCC(c3ccccc31)c1ccccc12.Cl` [Maprotiline HCl] yielded a Prob-Test of -0.421.
`CC(=O)O[C@@]1(C(C)=O)CC[C@H]2[C@@H]3C=C(Cl)C4=CC(=O)[C@@H]5C[C@H]5[C@]4(C)[C@@H]3CC[C@@]21C` [Cyproterone Acetate] showed a Prob-Test of -1.25.
`CN1CCCCC1CCN1c2ccccc2Sc2ccc(S(C)=O)cc21.O=S(=O)(O)c1ccccc1` (stereo not given) [Mesoridazine Besylate] gave a Prob-Test of -0.426.
In the case of `COS(=O)(=O)[O-].C[N+]1(C)CCC(=C(c2ccccc2)c2ccccc2)CC1` [Diphemanil Methylsulfate], the Prob-Test is reported as 0.191.
Molecule `CCOc1nc2cccc(C(=O)OC(C)OC(=O)OC3CCCCC3)c2n1Cc1ccc(-c2ccccc2-c2nnn[nH]2)cc1` (stereo not given) [Candesartan Cilexetil] has a Prob-Test of -0.341.
With `O=C(/C=C/c1ccc(O)cc1)c1ccc(O)cc1O` [Isoliquiritigenin] the Prob-Test was 0.0707.
Work on `CC1=C(C(=O)O)N2C(=O)[C@@H](NC(=O)[C@H](N)c3ccccc3)[C@@H]2SC1` [Cephalexin] yielded a Prob-Test of 0.684.
With `CNC[C@H](O)c1ccc(O)c(O)c1.Cl` [Epinephrine HCl] the Prob-Test was -0.188.
Work on `O=C(Nc1c[nH]nc1-c1nc2cc(CN3CCOCC3)ccc2[nH]1)NC1CC1` yielded a Prob-Test of -0.0962.
`Cc1cc2nc3c(=O)[nH]c(=O)nc-3n(C[C@H](O)[C@H](O)[C@H](O)CO)c2cc1C` [Riboflavin (Vitamin B2)] showed a Prob-Test of -0.671.
Molecule `N#CC[C@@H](C1CCCC1)n1cc(-c2ncnc3[nH]ccc23)cn1` has a Prob-Test of 0.0152.
Molecule `COc1ccc2c(c1)c(C1=C(c3c[nH]c4ccccc34)C(=O)NC1=O)cn2CCCN(C)C` has a Prob-Test of 0.176.
For `NC(=O)Nc1cc(-c2cccc(F)c2)sc1C(=O)N[C@H]1CCCNC1`, the Prob-Test was 0.0672.
`Cn1cc(-c2cnn3c(N)c(Br)c([C@@H]4CCCNC4)nc23)cn1` was tested, and the Prob-Test was 0.0678.
With `COc1cc2c(cc1NS(=O)(=O)c1ccc(Br)cc1C)n(C)c(=O)n2C` the Prob-Test was -0.463.
For `CCCc1nc(C(C)(C)O)c(C(=O)OCc2oc(=O)oc2C)n1Cc1ccc(-c2ccccc2-c2nn[nH]n2)cc1` [Olmesartan Medoxomil], the Prob-Test was -0.0305.
Work on `NS(=O)(=O)c1ccc(NC(=O)Nc2ccc(F)cc2)cc1` yielded a Prob-Test of 0.0622.
In the case of `O=C1Nc2ccccc2/C1=C1/Nc2ccccc2C1=O` [Indirubin], the Prob-Test is reported as 0.649.
With `Cc1cc(C(C)Nc2ccccc2)c2nc(N3CCOCC3)cc(=O)n2c1` (stereo not given) the Prob-Test was 0.424.
In the case of `Cl.Nc1c(Br)cc(Br)cc1CN[C@H]1CC[C@H](O)CC1` [Ambroxol HCl], the Prob-Test is reported as 0.171.
Molecule `CN(C)C(=O)c1ccc(S(=O)(=O)c2ccc(NC(=O)C(C)(O)C(F)(F)F)c(Cl)c2)cc1` (stereo not given) has a Prob-Test of 0.231.
For `CCCCCCCCCCCCCCCCO` [1-Hexadecanol], the Prob-Test was 0.143.
For `O=C1C[C@@H](c2ccc(O)cc2)Oc2cc(O)cc(O)c21` [Naringenin], the Prob-Test was -0.493.
For `Cc1ccc(C)c(OCCCC(C)(C)C(=O)O)c1` [Gemfibrozil], the Prob-Test was -0.376.
Molecule `Nc1ccc(C(=O)Nc2cccc(-c3nc(N4CCOCC4)c4oc5ncccc5c4n3)c2)cn1` has a Prob-Test of 0.11.
For `CN(C)CCOC(C)(c1ccccc1)c1ccccn1.O=C(O)CCC(=O)O` (stereo not given) [Doxylamine Succinate], the Prob-Test was -0.136.
`NC1CCN(c2c(F)cc3c(=O)c(C(=O)O)cn(C4CC4)c3c2Cl)C1` (stereo not given) gave a Prob-Test of -0.289.
`NCC(=O)Nc1ccc(-n2nc(C(F)(F)F)cc2-c2ccc3c(ccc4ccccc43)c2)cc1` gave a Prob-Test of -1.22.
Work on `C=C1C(=O)[C@]23C(CC[C@@H]1[C@H]2O)[C@]12CO[C@]3(O)[C@H](O)[C@@H]1C(C)(C)CC[C@@H]2O` (stereo not given in full) [Oridonin] yielded a Prob-Test of -0.932.
Work on `Nc1nc(N)c2nc(-c3cccc(O)c3)cnc2n1` yielded a Prob-Test of -0.288.
`O=C(NCc1ccccc1)c1csc(Nc2ccncn2)n1` [Thiazovivin] showed a Prob-Test of -0.188.
